# Source: the supplement of paper PMC8732350
# Structures can show the parent of a compound that is named as a salt. ± gives the standard deviation of the averaged measurements. The list shows a part of the results. Single values are uncertain here, since repeats match poorly.
# Test system: A549
# Test: surface PD-L1 immunofluorescence intensity relative to IFN-gamma-only control (ratio); higher = more PD-L1 expression
# Conditions: 10 µM; exposure time 24 h; IFN-gamma 100 ng/mL
row,SMILES,surface PD-L1 immunofluorescence intensity
1,CC(=O)O[C@H]1C[C@@]2(C)[C@@H](C[C@@H](O)[C@H]3[C@@]4(C)CC[C@@H](O)[C@@H](C)[C@@H]4CC[C@@]32C)/C1=C(\CCC=C(C)C)C(=O)O [Fusidic acid sodium salt],0.956
2,O=C1CCN(c2ccccc2)N1 [Phenidone],1.01
3,C[C@H]1NC(=O)NC1=O [Methylhydantoin-5-(D)],1.11
4,Cc1ccnc(NS(=O)(=O)c2ccc(N)cc2)n1 [Sulfamerazine],1.01
5,CCC[S+]([O-])c1ccc2[nH]c(NC(=O)OC)nc2c1 (configuration not stated) [Albendazole Oxide (Ricobendazole)],1.05
6,N=C(N)NCc1cccc(I)c1 [Iobenguane sulfate],1.06
7,NCCCC(O)(P(=O)(O)O)P(=O)(O)O [Alendronate sodium],1.03
8,NCCCC(O)(P(=O)(O)O)P(=O)(O)O [Alendronate],1.05
9,NCCCC(O)(P(=O)(O)O)P(=O)(O)O [Alendronate (Fosamax)],0.992
10,Nc1ccc(S(=O)(=O)Nc2cnc3ccccc3n2)cc1 [Sulfaquinoxaline sodium salt],0.98
11,CNC[C@H](O)[C@@H](O)[C@H](O)[C@H](O)CO [Meglumine],1.12
12,COC(=O)N[C@H](C(=O)N[C@@H](Cc1ccccc1)[C@@H](O)CN(Cc1ccc(-c2ccccn2)cc1)NC(=O)[C@@H](NC(=O)OC)C(C)(C)C)C(C)(C)C [Atazanavir sulfate],0.984
13,CCCCNc1cc(C(=O)O)cc(S(N)(=O)=O)c1Oc1ccccc1 [Bumetanide],0.905
14,C[C@H](Cn1cnc2c(N)ncnc21)OCP(=O)(O)O [Tenofovir (Viread)],0.951
15,CNC(=O)c1c(I)c(C(=O)NCC(=O)Nc2c(I)c(C(=O)O)c(I)c(C(=O)NCCO)c2I)c(I)c(N(C)C(C)=O)c1I [Ioxaglic acid],1.06
16,CC(=O)Oc1ccccc1C(=O)Oc1ccccc1C(=O)O [Acetylsalicylsalicylic acid],0.901
17,CC(C)n1c(/C=C/C(O)CC(O)CC(=O)O)c(-c2ccc(F)cc2)c2ccccc21 (configuration not stated) [Fluvastatin sodium (Lescol)],1.16
18,CC(C)n1c(/C=C/C(O)CC(O)CC(=O)O)c(-c2ccc(F)cc2)c2ccccc21 (configuration not stated) [Fluvastatin sodium salt],1.13
19,O=C(NCCCN1CCCCCC1)C(c1ccccc1)C1CCCCC1 (configuration not stated),1.03
20,O=c1ccn([C@@H]2O[C@H](CO)[C@@H](O)[C@H]2O)c(=O)[nH]1 [Uridine],1.18
21,COc1ccc2[nH]c(-c3ccccc3)c(CCNC(C)=O)c2c1 [2-Phenylmelatonin],0.99
22,CN1C(=O)OC(C)(C)C1=O [Trimethadione],1.04
23,CN(C/C=C/c1ccccc1)Cc1cccc2ccccc12 [Naftifine hydrochloride],0.938
24,OCCN1CCN(CCCN2c3ccccc3C=Cc3ccccc32)CC1 [Opipramol dihydrochloride],1.08

row,SMILES,surface PD-L1 immunofluorescence intensity
1,O=C(O)C=C1CCCc2ccccc2C1O (configuration not stated),1.01
2,COc1cccc(Nc2c(C(N)=O)cnc3c(C)cc(S(=O)(=O)c4cccc(C(=O)N(C)C)c4)cc23)c1,0.942
3,CC(=O)N(OCc1ccccc1)[C@H]1c2cc(C#N)ccc2OC(C)(C)[C@H]1O,0.932
4,CC(C)(C)c1nc(-c2cccc(NS(=O)(=O)c3c(F)cccc3F)c2F)c(-c2ccnc(N)n2)s1,1.06 ± 0.13
5,OCC1OC(n2cnc3c(NC4CCCC4)nc(Cl)nc32)C(O)C1O (configuration not stated) [2-Chloro-N6-cyclopentyladenosine],0.906
6,N[C@@H](Cc1cc(CP(=O)(O)O)cc(-c2ccccc2Cl)c1)C(=O)O,1.02
7,O=c1c(-c2ccc(O)cc2)coc2cc(O)ccc12 [Daidzein],0.949
8,CC(C)NC[C@H](O)COc1cccc2ccccc12 [(S)-propranolol hydrochloride],1.05
9,CC(C)NC[C@H](O)COc1cccc2ccccc12 [(S)-(-)-Propranolol hydrochloride],0.902
10,CC1(C)CC[C@]2(C(=O)O)CC[C@]3(C)C(=CC[C@@H]4[C@@]5(C)CC[C@H](O)C(C)(C)[C@@H]5CC[C@]43C)[C@@H]2C1 [Oleanolic Acid (Caryophyllin)],0.934
11,O=C(O)CCCCC(CCSCc1ccccc1)SCc1ccccc1 (configuration not stated),0.954
12,CS(=O)(=O)c1ccc(-c2cnc(N)c(C(=O)Nc3ccccc3)n2)cc1,1.02 ± 0.02
13,NS(=O)(=O)c1cc(Cl)c(Cl)c(S(N)(=O)=O)c1 [Dichlorphenamide],0.903
14,Cc1ccnc(NS(=O)(=O)c2ccc(NC(=O)Nc3ccc(S(=O)(=O)Nc4nccc(C)n4)cc3)cc2)n1,0.928
15,O=C(O)C1=CO[C@@H](O[C@@H]2O[C@H](CO)[C@@H](O)[C@H](O)[C@H]2O)[C@@H]2C(CO)=CC[C@H]12 [Geniposidic acid],0.905
16,CCN1CCCC(OC(=O)C(c2ccccc2)c2ccccc2)C1 (configuration not stated) [Piperidolate hydrochloride],1.09
17,CN(C)CCCSC(=N)N [Dimaprit dihydrochloride],1.05 ± 0.063
18,CN(C)CCOc1ccc(-c2nc(-c3ccncc3)c(-c3ccc4c(c3)CC/C4=N\O)[nH]2)cc1,0.96
19,Cc1onc(-c2c(F)cccc2Cl)c1C(=O)N[C@@H]1C(=O)N2[C@@H]1SC(C)(C)[C@@H]2C(=O)O [Flucloxacillin sodium],0.962
20,C=CCNC(=O)c1cc([N+](=O)[O-])cc2c(=O)[nH]c(Nc3ccc(Cl)c(Cl)c3)nc12,0.995
21,"C[C@]12CC[C@@H](O)C[C@@H]1CC[C@@H]1[C@@H]2CC[C@]2(C)C=CC[C@@H]12 [3a, 5a-Androstenol]",1.02
22,C/C(=C\C(=O)Nc1ccccc1C(=O)O)c1ccc2ccccc2c1,0.943
23,Cc1cc(Cl)ccc1OCCCC(=O)NO [Droxinostat],1.08
24,O=C(NCCN1CCOCC1)c1ccc(Cl)cc1 [Moclobemide],1.02

row,SMILES,surface PD-L1 immunofluorescence intensity
1,Cc1ccc(-n2sc(=O)n(Cc3ccc(F)cc3)c2=O)cc1,0.999
2,COc1ccc2c(c1)c(CC(=O)N1CCOCC1)c(C)n2C(=O)c1ccc(Cl)cc1,0.943
3,CC(C)(C)n1nc(-c2cccc3ccccc23)c2c(N)ncnc21 [1-Naphthyl PP1],1.1
4,CNCCCC12CCC(c3ccccc31)c1ccccc12 [Maprotiline hydrochloride],1.17
5,COc1ccc(CCN2CCN(CCCc3ccccc3)CC2)cc1OC,0.942
6,Cc1coc2c1C(=O)C(=O)c1c-2ccc2c1CCCC2(C)C [Tanshinone IIA],0.955
7,Cc1cn2cc(C(=O)N(C)CCO)cc(N[C@@H]3CCOc4cccc(C)c43)c2n1,1.05
8,CC1(C)C[C@@H]1C(=O)N/C(=C\CCCCSC[C@H](N)C(=O)O)C(=O)O [Cilastatin sodium],0.987
9,CC1(C)C[C@@H]1C(=O)N/C(=C\CCCCSC[C@H](N)C(=O)O)C(=O)O [Cilastatin],1.1
10,CCCCCCC(=O)OC1CC(C)(C)NC(C)(C)C1 [TMPH hydrochloride],1.08
11,Oc1cc2c(cc1O)CN(C(=S)NCCc1ccc(Cl)cc1)CCC2 [Capsazepine],1
12,Cc1c(C)c2c(c(C)c1OC(=O)CCC(=O)O)CC[C@@](C)(CCC[C@H](C)CCC[C@H](C)CCCC(C)C)O2 [Tocopherol succinate],1.01
13,CC(=O)OCOC(c1cc([N+](=O)[O-])ccc1Oc1ccc(Br)cc1)P(=O)(OCOC(C)=O)OCOC(C)=O (configuration not stated),1.17
14,C[C@@H]1C[C@H]2[C@@H]3C[C@H](F)C4=CC(=O)C=C[C@]4(C)[C@@]3(Cl)[C@@H](O)C[C@]2(C)[C@H]1C(=O)COC(=O)C(C)(C)C [Clocortolone pivalate],0.987
15,CCCCCCCC/C=C\CCCCCCCC(=O)NCCO [N-Oleoylethanolamide],1.01
16,C[C@@H](O)[C@H]1C(=O)N2C(C(=O)O)=C(S[C@@H]3CN[C@H](C(=O)N(C)C)C3)[C@H](C)[C@H]12 [Meropenem],1.0445 ± 0.00068
17,CC(=O)NCC(=O)N[C@H](CCC(=O)O)C(=O)O [N-Acetylglycyl-D-glutamic acid],0.937
18,CC(=O)O[C@H]1C[C@@H]2CC[C@@H]3[C@H](CC[C@@]4(C)[C@H]3C[C@H]([N+]3(C)CCCCC3)[C@@H]4OC(C)=O)[C@@]2(C)C[C@@H]1N1CCCCC1 [Vecuronium bromide],1.06
19,CC(=O)O[C@H]1C[C@@H]2CC[C@@H]3[C@H](CC[C@@]4(C)[C@H]3C[C@H]([N+]3(C)CCCCC3)[C@@H]4OC(C)=O)[C@@]2(C)C[C@@H]1N1CCCCC1 [Vecuronium Bromide],1.07
20,C[C@]12C=CC(=O)C=C1CC[C@H]1[C@@H]3C[C@@H](O)[C@](O)(C(=O)CO)[C@@]3(C)C[C@H](O)[C@@]12F [Triamcinolone],0.812
21,C[C@]12C=CC(=O)C=C1CC[C@H]1[C@@H]3C[C@@H](O)[C@](O)(C(=O)CO)[C@@]3(C)C[C@H](O)[C@@]12F [Triamcinolone (Aristocort)],0.882
22,CC1(C)O[C@@H]2C[C@H]3[C@@H]4CCC5=CC(=O)CC[C@]5(C)[C@@]4(F)[C@@H](O)C[C@]3(C)[C@]2(C(=O)CCl)O1 [Halcinonide],0.799
23,CCN(CC)C(=O)/C(C#N)=C/c1cc(O)c(O)c([N+](=O)[O-])c1 [Entacapone],0.954
24,C[C@@H]1O[C@@H](OC[C@H]2O[C@@H](Oc3c(-c4ccc(OCCO)c(OCCO)c4)oc4cc(OCCO)cc(O)c4c3=O)[C@H](O)[C@@H](O)[C@@H]2O)[C@H](O)[C@H](O)[C@H]1O [Troxerutin],1.06
